# Experimental data published in PubChem BioAssay AID2685 (National Center for Advancing Translational Sciences (NCATS), 2010).
# The other results are listed elsewhere or left out. The main result of the screen is listed elsewhere. These columns were measured beside it and carry no call. Most of these compounds were active or inconclusive in the main read-out, so they are no random draw. Words in brackets tell the shape of the fitted curve; partial curves, single points and poor fits give uncertain potencies.
# Assay: qHTS Assay for Lipid Storage Modulators in Drosophila S3 Cells;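 as to cell number change: cells counted by Cell Tracker Red CMTPX staining in the red channel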
# Conditions: BODIPY lipid droplet fluorescence, 18-24 h; for cell number change: measured here: cell count max response, cells fed with added oleic acid
# Procedure, shortened: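 Drosophila S3 cells loaded with oleic acid (400 uM, as added) and compounds at several concentrations; lipid droplets imaged by 488-nm laser-scanning cytometry, 500–530 nm intensity and object ratio to cell channel. Percent activity normalized to 20 uM Triacsin C.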
# [1] = measured here: lipid fluorescence (Fed channel) AC50, cells fed with added oleic acid
# [2] = measured here: cell number channel AC50, cells fed with added oleic acid
smiles,measurement,setting,value
CCOc1ccc(N(CC(=O)NCCSCc2ccc(Cl)cc2)S(C)(=O)=O)cc1,AC50,[1],"14.6 µM [falling, partial curve]"
COC(=O)Cc1cc(OC)c(OC)cc1Cc1cc(OC)c(OC)cc1CC(=O)OC,AC50,[1],"0.00517 µM [falling, full curve, poor fit]"
CCCCCOC(=O)Nc1ccc(S(=O)(=O)Nn2cnnc2)cc1,cell number change,,-20.2%
same,AC50,[1],"0.517 µM [falling, full curve]"
Cc1nnc(Sc2cc(NCCCO)c([N+](=O)[O-])c3nonc23)s1,cell number change,,-129%
same,AC50,[2],"29.1 µM [falling, partial curve, poor fit]"
same,AC50,[1],"29.1 µM [falling, single point]"
COC(=O)COc1ccc(S(=O)(=O)NCc2ccccn2)cc1,cell number change,,3.04%
same,AC50,[1],"3.66 µM [rising, full curve]"
CN(Cc1ccncc1)C1CC(=O)N(c2ccc(F)cc2)C1=O (stereo not drawn),cell number change,,-40.8%
same,AC50,[2],"29.1 µM [falling, single point]"
Cc1ccc(CSc2nc3c(c(=O)[nH]2)CCC3)cc1,AC50,[2],"2.31 µM [falling, partial curve]"
COc1cc(NC(=O)CCNC(=O)Cn2cnc3ccccc3c2=O)cc(OC)c1OC,cell number change,,-21.4%
same,AC50,[2],"3.66 µM [falling, full curve, poor fit]"
same,AC50,[1],"20.6 µM [falling, partial curve]"
CCCOc1cc(C)c(S(=O)(=O)NC2CC(C)(C)NC(C)(C)C2)cc1C,cell number change,,-10.3%
same,AC50,[1],"0.00517 µM [falling, full curve, poor fit]"
O=C(c1ccc(CNS(=O)(=O)c2ccc(Br)cc2)cc1)N1CCCCCC1,cell number change,,-17.7%
same,AC50,[1],"16.4 µM [falling, single point]"
NC(=O)Cn1cnc2nc3n(c2c1=O)CCC3,cell number change,,-28.5%
same,AC50,[2],"0.731 µM [falling, full curve, poor fit]"
CCN(CC)CCn1c2c(c(SCC(=O)Nc3nc(C)cs3)nc1=O)CCCC2,AC50,[2],"6.51 µM [rising, partial curve]"
same,AC50,[1],"16.4 µM [falling, single point]"
CCc1c(C)nc2ccc(Br)cc2c1Cl,cell number change,,-18.2%
Cc1nc(-c2cccc(NC(=O)c3ccc(-n4nccc4C)cc3)c2)cs1,cell number change,,1.94%
same,AC50,[2],"6.51 µM [rising, single point]"
Cc1ccnn1CCC(=O)N1CCCC(N2CCN(c3cccc(Cl)c3)CC2)C1 (stereo not drawn),cell number change,,3.97%
same,AC50,[2],"6.51 µM [rising, single point]"
NC(=O)C1CCCN(C(=O)CNC(=O)C23CC4CC(CC(C4)C2)C3)C1 (stereo not drawn),cell number change,,-0.942%
same,AC50,[1],"29.1 µM [falling, single point]"
CC(=O)NS(=O)(=O)c1ccc2c(c1)Cc1cc(S(=O)(=O)NC(C)=O)ccc1-2,cell number change,,-27.4%
COc1cc(OC)cc(C(=O)N2CCN(c3ccccc3F)CC2)c1,cell number change,,1.18%
same,AC50,[1],"0.0082 µM [rising, full curve, poor fit]"
CCOC(=O)c1c(-c2cccs2)csc1NC(=O)CSc1ncn[nH]1,cell number change,,94.6%
Cc1cc(N2CCOCC2)nc2ccc(NC(=S)NCCC(C)C)cc12,cell number change,,-6.94%
same,AC50,[2],"0.82 µM [rising, partial curve, poor fit]"
CCOC(=O)c1ccc(N=Cc2nc(-c3ccccc3)oc2OC(C)=O)cc1,cell number change,,61.2%
same,AC50,[2],"20.6 µM [rising, single point]"
Cc1cccc(NC(=O)NC(=S)NC(=O)c2ccccc2)c1,AC50,[1],"29.1 µM [rising, single point]"
CNS(=O)(=O)c1cc(NC(=O)c2cccc3cccnc23)ccc1C,cell number change,,-6.3%
NC(=O)C1(N2CCCCC2)CCN(C(=O)c2cccs2)CC1,cell number change,,-36.7%
same,AC50,[2],"0.184 µM [falling, full curve]"
same,AC50,[1],"2.06 µM [falling, full curve]"
O=C(O)c1ccccc1-c1ccccc1C(=O)NCc1cccnc1,cell number change,,7.69%
same,AC50,[1],"6.51 µM [falling, single point]"
CCN(CC)C(=O)COc1ccc(-c2nnc(Nc3ccc(OC)c(C(=O)NC)c3)c3ccccc23)cc1,cell number change,,-17.5%
same,AC50,[1],"32.6 µM [falling, single point]"
COc1cc2cc(CN(CCc3ccccc3C)C(=S)NCCCN(C)C)c(=O)[nH]c2cc1OC,cell number change,,-17.9%
same,AC50,[1],"14.6 µM [falling, single point]"
Cn1c(N)c(C(=O)COC(=O)COc2ccccc2Cl)c(=O)n(C)c1=O,cell number change,,175%
same,AC50,[2],"5.17 µM [rising, full curve]"
CN1C(CC(=O)Nc2ccc(Cl)cc2Cl)c2ccccc2CC1(C)C (stereo not drawn),cell number change,,-53.3%
same,AC50,[2],"18.4 µM [falling, single point]"
same,AC50,[1],"32.6 µM [falling, single point]"
Cc1ccccc1OC(=O)Cn1c(C(F)(F)F)nc2ccccc21,cell number change,,-19.2%
NC(=S)Cc1nc(-c2ccccc2)cs1,cell number change,,14.2%
same,AC50,[1],"23.1 µM [falling, partial curve]"
CCOc1ccc(NC(=O)CCC(=O)c2ccc(OC)cc2)cc1,cell number change,,-8.52%
same,AC50,[1],"29.1 µM [rising, single point]"
C=C(C)C1CC=C(CN2CCC(C(=O)OCC)CC2)CC1 (stereo not drawn),cell number change,,1.82%
same,AC50,[1],"29.1 µM [falling, single point]"
COc1ccc(C(=O)N/C(=C/c2ccco2)C(=O)NC2CCS(=O)(=O)C2)cc1 (stereo not drawn),AC50,[2],"0.58 µM [rising, single point]"
COc1ccc(NC(=O)CCc2nc3ccccc3[nH]2)cc1,cell number change,,33.1%
same,AC50,[2],"29.1 µM [rising, single point]"
same,AC50,[1],"3.66 µM [rising, full curve]"
CCOC(=O)N1CCC(NC(=S)Nc2ccc3nc(N4CCN(C)CC4)cc(C)c3c2)CC1,cell number change,,22.2%
same,AC50,[2],"2.59 µM [rising, single point]"
same,AC50,[1],"6.51 µM [rising, single point]"
O=c1cc(-c2ccc([N+](=O)[O-])cc2)nc2cc(-c3ccc(F)cc3)[nH]n12,cell number change,,-35.1%
same,AC50,[2],"0.00461 µM [falling, full curve, poor fit]"
same,AC50,[1],"20.6 µM [rising, single point]"
O=S(=O)(c1ccc(Cl)c(C(F)(F)F)c1)N1CCN(c2ccccn2)CC1,cell number change,,-14.9%
same,AC50,[2],"0.326 µM [rising, full curve]"

# Some of the entries above in another layout:
smiles	measurement	setting	value
CCCCCOC(=O)Nc1ccc(S(=O)(=O)Nn2cnnc2)cc1	AC50	[1]	0.517 µM [falling, full curve]
Cc1nc(-c2cccc(NC(=O)c3ccc(-n4nccc4C)cc3)c2)cs1	AC50	[2]	6.51 µM [rising, single point]
NC(=O)C1CCCN(C(=O)CNC(=O)C23CC4CC(CC(C4)C2)C3)C1 (stereo not drawn)	AC50	[1]	29.1 µM [falling, single point]
CC(=O)NS(=O)(=O)c1ccc2c(c1)Cc1cc(S(=O)(=O)NC(C)=O)ccc1-2	cell number change		-27.4%
Cn1c(N)c(C(=O)COC(=O)COc2ccccc2Cl)c(=O)n(C)c1=O	AC50	[2]	5.17 µM [rising, full curve]
O=S(=O)(c1ccc(Cl)c(C(F)(F)F)c1)N1CCN(c2ccccn2)CC1	AC50	[2]	0.326 µM [rising, full curve]
